This is an account of results in paper PMC10222209 (Pharmaceuticals, 2023).

This test deals with LNCaP95 cells. In words: Antiproliferative assay (resazurin, 72 h) in LNCaP95 cells. The settings on record: LNCaP-95; antiproliferation, LNCaP95, 72 h, mean of three independent experiments. The class given is cell-based. As to the method:
The synthesized compounds were first screened in 22Rv1, an enzalutamide-resistant cell line at concentrations of 10 and 1.0 μM, respectively.
22Rv1 cells were obtained from ATCC. LNCaP95 cells were provided by Dr. Yan Dong’s laboratory (Tulane University School of Medicine). LNCaP95 cells were maintained in an RPMI1640 medium with charcoal-stripped serum (CSS). 22Rv1 cells were maintained in an RPMI1640 medium with 10% FBS. Cells were seeded in 96-well plates (5 × 10^3 cells/well) containing a 50 μL growth medium for 24 h. After medium removal, a 100 μL fresh medium containing individual compounds at different concentrations was added to each well and incubated at 37 °C for 72 h. Then, 20 μL of resazurin was added for 2 h before recording fluorescence at 560 nm (excitation) and 590 nm (emission) using a Victor microtiter plate fluorometer (Perkin-Elmer, Waltham, MA, USA).
(In general: The colour change of resazurin is a common sign of viable cells or microbes.)

Broadly, the IC50 is the concentration needed to halve the response being measured. The low end stands for greater potency in that assay, the high end for weaker potency in that assay. In turn, `CNC(=O)c1ccc(N2C(=S)N(c3ccc(C#N)c(C(F)(F)F)c3)C(=O)C2(C)C)cc1F` [Enzalutamide, reference compound] returned a 50% inhibitory concentration (IC50) of more than 10000 µM.
